Experimental data: publication PMC6739421
These are yes or no findings as the source states them, for the method shown. Some results given as binding are weak or reduced against the parent protein; the word gives no strength.

Biological target: phage λ terminase small subunit (TerS, gpNu1), wild type (phage λ) (UniProt P03707)
Assay: two-hybrid; bacterial adenylate cyclase two-hybrid (BACTH) in E. coli BTH101 with plasmids pKT25 and pUT18C; colour on X-gal/IPTG plates at 30°C and β-galactosidase in Miller units after overnight induction with 0.5 mM IPTG

B1: phage λ terminase small subunit (TerS, gpNu1), wild type (protein, UniProt P03707 1-181)
chain: MEVNKKQLADIFGASIRTIQNWQEQGMPVLRGGGKGNEVLYDSAAVIKWYAERDAEIENEKLRREVEELRQASEADLQPGTIEYERHRLTRAQADAQELKNARDSAEVVETAFCTFVLSRIAGEIASILDGLPLSVQRRFPELENRHVDFLKRDIIKAMNKAAALDELIPGLLSEYIEQSG
binding: binds
